Reference: the supplement of paper PMC10338343
± gives the standard deviation. This is a selection; strong and weak results do not stand in their true shares. The uncertainty is large for many entries. This is one part of the list.

Columns and labels:
[1] = system: MILI (PIWIL2) piRISC loaded with L1MC piRNA (26 nt); experiment: pre-steady-state target cleavage rate (min^-1); higher = faster piRNA-guided slicing of the target; conditions: guide: L1MC piRNA 5'p-UAACUAAAUACUAUGCAAGCUGUAGG
Summary of the method: (§1)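 A transcribed, DNA-blocked target RNA library (0.1 nM) and 1 nM active affinity-purified piRISC bearing one synthetic guide were incubated in HEPES–potassium acetate buffer at 33 °C for 0–8 or 0–960 min, either with or without 500 nM GTSF1 partner protein. Uncleaved targets were sequenced, normalised to depth and to weakly complementary targets, and pooled over three trials, with k3 capped at 0.0001 min^-1. The pre-steady-state cleavage rate was derived with a burst-and-steady-state fit.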

[2] = system: MIWI (PIWIL1) piRISC loaded with L1MC piRNA (30 nt); experiment: as above; conditions: guide: L1MC piRNA 5'p-UAACUAAAUACUAUGCAAGCUGUAGGUCCU
Summary of the method: as §1

[3] = system: EfPiwi piRISC loaded with L1MC piRNA (26 nt); experiment: pre-steady-state target cleavage rate (min^-1); guide: L1MC piRNA 5'p-UAACUAAAUACUAUGCAAGCUGUAGG; MIWI and MILI are mouse PIWI proteins and EfPiwi is from a freshwater sponge; tags in brackets are library labels; higher = faster piRNA-guided slicing of the target
Summary of the method: as §1

[4] = auxiliary factor: 500 nM mouse GTSF1
[5] = auxiliary factor: none (no GTSF1)
[6] = auxiliary factor: 500 nM Ephydatia muelleri Gtsf1
[7] = auxiliary factor: none (no Gtsf1)

Row | Sequence | pre-steady-state target cleavage rate [1, 4] | pre-steady-state target cleavage rate [1, 5] | pre-steady-state target cleavage rate [2, 4] | pre-steady-state target cleavage rate [2, 5] | pre-steady-state target cleavage rate [3, 6] | pre-steady-state target cleavage rate [3, 7]
1 | UCCUGGAUGAGCUUGCAUAGAUAUUAGUUA | 0.00307 ± 0.0041 | 0.00114 ± 0.0062 | 0.00099 ± 0.0083 | 0.000354 ± 0.0083 | 0.00029 ± 0.011 | 0.000489 ± 0.016
2 | UCCUGGAUCAGCUUGCUAAGUAUUUUCAAA | – | 0.000593 ± 0.0084 | – | 0.000747 ± 0.0092 | 0.00039 ± 0.011 | 0.000701 ± 0.014
3 | UCCUCCUACAGCUUGCAUAGUUAAUUCAAA | – | 0.00124 ± 0.0056 | – | 0.000256 ± 0.011 | 0.00233 ± 0.003 | 0.000301 ± 0.015
4 | UCCUGGAUGACCUUCCAUAGUAUUUAGUUA | 0.024 ± 0.0096 | 0.00133 ± 0.0063 | 0.0036 ± 0.0052 | 0.000838 ± 0.0072 | 0.00191 ± 0.0055 | 0.000317 ± 0.028
5 | UCCUGGAUGAGCUUGCAUUAGUAUUUAGUUA | 0.00494 ± 0.0045 | 0.000314 ± 0.0096 | 0.00225 ± 0.0049 | 0.000838 ± 0.011 | 0.000454 ± 0.0094 | 0.000482 ± 0.017
6 | UCCUGGAUGUCGUUGCAUAGAUUUAGUUA | 0.00113 ± 0.0065 | 0.00104 ± 0.0055 | 0.000459 ± 0.018 | 0.00142 ± 0.005 | 0.0004 ± 0.0067 | < 0.0001
7 | UCCUGCAACAGCUUGCAUAGUAUUUAGAAA | 0.138 ± 0.026 | 0.00152 ± 0.0057 | 0.429 ± 0.059 | 0.00469 ± 0.0034 | 0.00432 ± 0.0016 | 0.000243 ± 0.026
8 | UCCUGGAUGUGCUUGCAUAGUAUAAAGAAA | 0.00156 ± 0.0086 | 0.000566 ± 0.0097 | 0.000724 ± 0.016 | 0.000829 ± 0.01 | 0.00106 ± 0.006 | 0.000432 ± 0.019
9 | UCCUGGUACAGCUACCAUAGUAUUUAGUUA | 0.305 ± 0.044 | – | – | 0.0023 ± 0.0028 | 0.00432 ± 0.0019 | 0.000949 ± 0.0086
10 | UCCUGGAUGUCGUUGCAUAGUAUUUUCAUA | 0.00148 ± 0.0076 | 0.000611 ± 0.0094 | 0.000278 ± 0.032 | 0.000438 ± 0.019 | 0.000209 ± 0.023 | 0.000422 ± 0.019
11 | UCCUGCUACAGCUUCGUUAGUAUUUAGUAA | – | 0.00158 ± 0.0029 | – | 0.00106 ± 0.0048 | 0.000873 ± 0.0056 | 0.000265 ± 0.021
12 | UCCUCCUACAGCUUGCAUAGAAUUUUCAAA | – | 0.000769 ± 0.0063 | – | 0.000385 ± 0.0062 | 0.00178 ± 0.0023 | < 0.0001
13 | UCCUGGAUGAGCUUGCAUAGUUAAAUCAAA [g10:g21:cont:t1A] | 0.000858 ± 0.0092 | 0.00043 ± 0.016 | 0.000685 ± 0.013 | 0.000702 ± 0.0073 | 0.000586 ± 0.0085 | 0.000496 ± 0.017
14 | UCCUGGAUGAGCUUGCACUAGUAUUUAGUUA | 0.00272 ± 0.004 | 0.00102 ± 0.0065 | 0.00113 ± 0.0079 | 0.000988 ± 0.0065 | 0.000421 ± 0.011 | 0.000496 ± 0.017
15 | UCCUGCUACAGCUUGCAUAGUAAAAAGUUA | – | 0.00195 ± 0.0032 | – | 0.00138 ± 0.0051 | 0.00305 ± 0.0016 | 0.000948 ± 0.0085
16 | UCCUGGAUGUCCUAGGAUAGUAUUUAGUUA | – | 0.00181 ± 0.0032 | – | 0.000716 ± 0.0083 | 0.000327 ± 0.0072 | 0.000101 ± 0.062
17 | UCCUGGAUGUCCUUGCAUAGUAUUAUCAAA [g7:g19:cont:t1A] | – | 0.00135 ± 0.0046 | – | 0.00121 ± 0.006 | 0.000987 ± 0.0079 | 0.000121 ± 0.021
18 | UCCUGCUACAGCUUGCAUUCUAUUUAGUAA | – | 0.00067 ± 0.0093 | – | 0.00206 ± 0.0024 | 0.000397 ± 0.011 | 0.000142 ± 0.039

Record cards, from the list above. Values in the order: pre-steady-state target cleavage rate [1, 4]	pre-steady-state target cleavage rate [1, 5]	pre-steady-state target cleavage rate [2, 4]	pre-steady-state target cleavage rate [2, 5]	pre-steady-state target cleavage rate [3, 6]	pre-steady-state target cleavage rate [3, 7]
UCCUGGAUGUCGUUGCAUAGAUUUAGUUA as listed: 0.00113 ± 0.0065	0.00104 ± 0.0055	0.000459 ± 0.018	0.00142 ± 0.005	0.0004 ± 0.0067	< 0.0001
UCCUGCUACAGCUUGCAUUCUAUUUAGUAA as listed: –	0.00067 ± 0.0093	–	0.00206 ± 0.0024	0.000397 ± 0.011	0.000142 ± 0.039

(further entries)

Row | Sequence | pre-steady-state target cleavage rate [1, 4] | pre-steady-state target cleavage rate [1, 5] | pre-steady-state target cleavage rate [2, 4] | pre-steady-state target cleavage rate [2, 5] | pre-steady-state target cleavage rate [3, 6] | pre-steady-state target cleavage rate [3, 7]
19 | UCCUGGAUGUCGAAGCAUAGUUUUUAGUUA | 0.00892 ± 0.0039 | 0.00397 ± 0.0017 | 0.0012 ± 0.0088 | 0.00125 ± 0.0051 | 0.000302 ± 0.0098 | < 0.0001
20 | UCCUGGAUGAGGUUGCAUAGUAUUUACAAA | 0.00042 ± 0.017 | 0.00056 ± 0.0098 | 0.000245 ± 0.03 | 0.00066 ± 0.01 | 0.000651 ± 0.0052 | 0.000676 ± 0.015
21 | UCCUGGAUGUGCUAGCAUAGUAUUUAGAAA | 0.0422 ± 0.012 | 0.000711 ± 0.008 | 0.00284 ± 0.0037 | 0.00177 ± 0.0043 | 0.00168 ± 0.0028 | 0.000557 ± 0.012
22 | UCCUGGAUGAGCUUGCAUAGAAAUUAGUUA | – | 0.00138 ± 0.0046 | – | 0.0014 ± 0.0029 | 0.000617 ± 0.006 | 0.000525 ± 0.015
23 | UCCUGGAUGUCCUUGCAUGUAUUUAGUUA | 0.0026 ± 0.0041 | 0.00112 ± 0.0053 | 0.00306 ± 0.004 | 0.00183 ± 0.0035 | 0.00166 ± 0.0055 | 0.000499 ± 0.013
24 | UCCUCCUACAGCUUGCAUAGAAUUUACAAA | – | 0.000793 ± 0.0052 | – | 0.00197 ± 0.0028 | 0.00295 ± 0.0029 | 0.000357 ± 0.013
25 | UCCUGGAUGUCCUUGUCAUAGUAUUUAGUUA | – | 0.00173 ± 0.0039 | – | 0.00066 ± 0.013 | 0.00236 ± 0.0053 | 0.00011 ± 0.028
26 | UCCUGGAUGUCGUUGCAUAGUUUUUUGUUA | 0.00172 ± 0.0071 | 0.00137 ± 0.0054 | 0.000808 ± 0.011 | 0.000801 ± 0.012 | 0.000356 ± 0.011 | 0.000432 ± 0.022
27 | UCCUGGAUGUCGUUGCAUUAGUAUUUAGUUA | 0.0014 ± 0.0066 | 0.00147 ± 0.0052 | 0.000104 ± 0.042 | 0.00115 ± 0.0072 | 0.00037 ± 0.0086 | 0.000402 ± 0.02
28 | UCCUGGAUGUCGUUGCAUAGUAUAAUGUUA | – | 0.00174 ± 0.0045 | – | 0.000738 ± 0.012 | 0.000309 ± 0.01 | < 0.0001
29 | UCCUGGAUGUCGAAGCAUUCAAUUUAGUUA | – | 0.000296 ± 0.014 | – | 0.000535 ± 0.0095 | 0.000274 ± 0.0081 | 0.000234 ± 0.021
30 | UCCUGGAUGUCGUUGCAAGUAUUUAGUUA | 0.00141 ± 0.005 | 0.00175 ± 0.0034 | 0.00109 ± 0.0072 | 0.00237 ± 0.0034 | 0.000347 ± 0.0075 | 0.000202 ± 0.044
31 | UCCUGGAUCAGCUUGCAUAGUAUUAUGUAA | 0.00562 ± 0.0035 | 0.00136 ± 0.0053 | 0.0189 ± 0.0065 | 0.00377 ± 0.0026 | 0.000969 ± 0.0041 | 0.000317 ± 0.029
32 | UCCUGCUACAGCUUGGUAAGUAUUUAGAAA | 0.0107 ± 0.0045 | 0.000725 ± 0.0083 | 0.00235 ± 0.0044 | 0.000234 ± 0.013 | 0.00103 ± 0.0049 | < 0.0001
33 | UCCUGGAACUGCUUGCAUAGUAUUUUCAAA | – | 0.000827 ± 0.0061 | – | 0.00246 ± 0.0028 | 0.00125 ± 0.0029 | 0.000308 ± 0.016
34 | UCCUGGAUGAGCUUGGAUAGUAUUUACUUA | – | 0.000736 ± 0.0079 | 0.00323 ± 0.0043 | – | 0.00069 ± 0.0084 | 0.00013 ± 0.06
35 | UCCUGGAUGUGCUUGCAUUCAAUUUAGUUA | 0.00164 ± 0.0063 | 0.00224 ± 0.0028 | 0.000733 ± 0.014 | 0.000702 ± 0.0074 | 0.000332 ± 0.011 | 0.000124 ± 0.074
